The supplement of paper PMC6411743
± gives the standard deviation of the averaged measurements. The list shows a part of the results, in another mix than the full data. Most values lie at the level of the controls, where differences are scatter.

Protein sequences, listed by entry. Tags and fused reporters are not part of them. Lines headed by an entry give the natural chain unless they say otherwise; changes in a name come on top.
UniProt Q96DB5: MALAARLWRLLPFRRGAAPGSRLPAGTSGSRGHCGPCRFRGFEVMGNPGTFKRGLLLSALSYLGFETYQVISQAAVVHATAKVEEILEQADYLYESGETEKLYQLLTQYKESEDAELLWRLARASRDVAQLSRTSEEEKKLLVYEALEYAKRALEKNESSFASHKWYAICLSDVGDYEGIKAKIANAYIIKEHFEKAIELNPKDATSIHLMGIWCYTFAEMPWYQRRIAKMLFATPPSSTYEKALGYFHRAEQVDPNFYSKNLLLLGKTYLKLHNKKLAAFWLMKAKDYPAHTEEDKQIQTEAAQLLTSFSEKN
UniProt Q96PZ0: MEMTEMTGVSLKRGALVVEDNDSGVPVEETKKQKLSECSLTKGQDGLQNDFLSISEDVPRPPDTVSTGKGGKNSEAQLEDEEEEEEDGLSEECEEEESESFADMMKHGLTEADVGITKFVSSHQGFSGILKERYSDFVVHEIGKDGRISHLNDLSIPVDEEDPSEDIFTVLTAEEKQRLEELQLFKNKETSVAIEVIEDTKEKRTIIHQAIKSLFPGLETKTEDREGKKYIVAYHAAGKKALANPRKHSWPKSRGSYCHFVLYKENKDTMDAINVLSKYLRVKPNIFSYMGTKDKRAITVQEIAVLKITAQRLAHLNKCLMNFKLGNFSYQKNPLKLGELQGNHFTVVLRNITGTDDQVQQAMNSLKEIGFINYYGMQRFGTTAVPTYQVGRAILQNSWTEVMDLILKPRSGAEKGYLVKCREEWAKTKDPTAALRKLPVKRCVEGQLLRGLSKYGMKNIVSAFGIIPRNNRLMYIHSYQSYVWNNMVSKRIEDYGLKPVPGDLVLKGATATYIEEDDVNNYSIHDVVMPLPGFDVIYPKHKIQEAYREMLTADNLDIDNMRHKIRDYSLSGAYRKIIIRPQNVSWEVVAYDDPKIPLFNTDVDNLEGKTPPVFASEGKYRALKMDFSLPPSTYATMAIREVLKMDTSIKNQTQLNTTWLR
UniProt Q96N46: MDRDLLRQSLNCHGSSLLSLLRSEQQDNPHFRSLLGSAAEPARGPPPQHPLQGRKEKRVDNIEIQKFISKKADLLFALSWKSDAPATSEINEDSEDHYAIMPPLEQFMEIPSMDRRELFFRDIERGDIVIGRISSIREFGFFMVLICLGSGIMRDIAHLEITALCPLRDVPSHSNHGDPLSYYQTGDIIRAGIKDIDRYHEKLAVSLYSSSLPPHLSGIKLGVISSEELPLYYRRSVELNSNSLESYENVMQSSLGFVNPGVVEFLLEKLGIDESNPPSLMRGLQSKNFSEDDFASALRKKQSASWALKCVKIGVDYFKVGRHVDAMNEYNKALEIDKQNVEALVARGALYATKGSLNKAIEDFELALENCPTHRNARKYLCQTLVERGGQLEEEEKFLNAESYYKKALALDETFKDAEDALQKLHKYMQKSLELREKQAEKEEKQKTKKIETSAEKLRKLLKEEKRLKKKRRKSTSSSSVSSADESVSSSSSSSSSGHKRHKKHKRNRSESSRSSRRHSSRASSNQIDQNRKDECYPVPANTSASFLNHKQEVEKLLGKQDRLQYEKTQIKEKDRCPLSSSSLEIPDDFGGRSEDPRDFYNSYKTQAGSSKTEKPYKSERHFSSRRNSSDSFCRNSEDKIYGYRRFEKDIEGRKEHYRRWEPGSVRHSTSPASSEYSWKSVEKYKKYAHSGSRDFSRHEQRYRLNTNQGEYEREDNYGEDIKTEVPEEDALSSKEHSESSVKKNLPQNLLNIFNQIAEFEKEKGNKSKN
UniProt Q96EZ8, whole entry: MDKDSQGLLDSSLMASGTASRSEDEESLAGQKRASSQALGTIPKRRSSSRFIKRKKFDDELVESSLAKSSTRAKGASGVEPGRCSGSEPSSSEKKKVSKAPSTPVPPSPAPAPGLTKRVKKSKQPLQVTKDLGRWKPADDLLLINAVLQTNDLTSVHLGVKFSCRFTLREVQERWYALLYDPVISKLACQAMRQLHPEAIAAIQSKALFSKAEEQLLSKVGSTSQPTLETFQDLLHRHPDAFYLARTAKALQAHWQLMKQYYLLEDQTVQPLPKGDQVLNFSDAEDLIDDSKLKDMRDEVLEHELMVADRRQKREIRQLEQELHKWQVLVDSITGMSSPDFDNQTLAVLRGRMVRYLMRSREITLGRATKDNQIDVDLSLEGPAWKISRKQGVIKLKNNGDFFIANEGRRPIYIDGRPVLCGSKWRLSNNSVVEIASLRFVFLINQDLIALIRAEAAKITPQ
UniProt Q96LT9: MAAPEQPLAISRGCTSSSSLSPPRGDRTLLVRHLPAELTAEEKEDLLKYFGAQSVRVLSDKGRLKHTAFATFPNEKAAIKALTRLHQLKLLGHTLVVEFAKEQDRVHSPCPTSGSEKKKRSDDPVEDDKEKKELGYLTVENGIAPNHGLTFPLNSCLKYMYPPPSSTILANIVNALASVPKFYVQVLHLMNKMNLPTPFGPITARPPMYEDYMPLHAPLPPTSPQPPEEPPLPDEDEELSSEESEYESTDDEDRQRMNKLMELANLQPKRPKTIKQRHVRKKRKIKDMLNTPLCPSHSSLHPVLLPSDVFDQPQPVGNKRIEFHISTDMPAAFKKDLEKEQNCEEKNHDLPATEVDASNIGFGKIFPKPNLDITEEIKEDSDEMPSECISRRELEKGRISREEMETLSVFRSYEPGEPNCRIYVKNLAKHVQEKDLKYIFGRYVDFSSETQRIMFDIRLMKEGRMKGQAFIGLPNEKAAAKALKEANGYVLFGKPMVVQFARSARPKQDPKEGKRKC
UniProt Q96II8: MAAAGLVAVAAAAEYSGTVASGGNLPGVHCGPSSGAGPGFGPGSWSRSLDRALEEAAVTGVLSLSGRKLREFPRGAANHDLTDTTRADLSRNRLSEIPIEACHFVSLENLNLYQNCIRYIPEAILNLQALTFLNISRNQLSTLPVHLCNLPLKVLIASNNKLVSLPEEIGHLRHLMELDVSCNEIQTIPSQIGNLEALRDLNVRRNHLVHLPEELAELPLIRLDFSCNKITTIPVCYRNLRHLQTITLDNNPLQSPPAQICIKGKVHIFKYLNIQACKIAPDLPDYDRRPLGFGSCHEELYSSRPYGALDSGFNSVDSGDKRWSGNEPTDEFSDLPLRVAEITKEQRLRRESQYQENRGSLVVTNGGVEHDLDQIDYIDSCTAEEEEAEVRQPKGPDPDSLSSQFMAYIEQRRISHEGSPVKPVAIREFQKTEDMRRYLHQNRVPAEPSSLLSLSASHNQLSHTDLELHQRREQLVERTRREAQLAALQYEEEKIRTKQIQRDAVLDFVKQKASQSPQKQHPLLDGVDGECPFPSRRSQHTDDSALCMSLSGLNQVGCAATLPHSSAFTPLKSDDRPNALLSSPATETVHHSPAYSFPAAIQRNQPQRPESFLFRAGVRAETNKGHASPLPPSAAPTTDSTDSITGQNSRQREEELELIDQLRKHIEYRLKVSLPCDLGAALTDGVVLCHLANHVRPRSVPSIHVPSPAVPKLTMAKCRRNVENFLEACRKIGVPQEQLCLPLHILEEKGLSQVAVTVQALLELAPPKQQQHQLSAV
UniProt Q96SB4, whole entry: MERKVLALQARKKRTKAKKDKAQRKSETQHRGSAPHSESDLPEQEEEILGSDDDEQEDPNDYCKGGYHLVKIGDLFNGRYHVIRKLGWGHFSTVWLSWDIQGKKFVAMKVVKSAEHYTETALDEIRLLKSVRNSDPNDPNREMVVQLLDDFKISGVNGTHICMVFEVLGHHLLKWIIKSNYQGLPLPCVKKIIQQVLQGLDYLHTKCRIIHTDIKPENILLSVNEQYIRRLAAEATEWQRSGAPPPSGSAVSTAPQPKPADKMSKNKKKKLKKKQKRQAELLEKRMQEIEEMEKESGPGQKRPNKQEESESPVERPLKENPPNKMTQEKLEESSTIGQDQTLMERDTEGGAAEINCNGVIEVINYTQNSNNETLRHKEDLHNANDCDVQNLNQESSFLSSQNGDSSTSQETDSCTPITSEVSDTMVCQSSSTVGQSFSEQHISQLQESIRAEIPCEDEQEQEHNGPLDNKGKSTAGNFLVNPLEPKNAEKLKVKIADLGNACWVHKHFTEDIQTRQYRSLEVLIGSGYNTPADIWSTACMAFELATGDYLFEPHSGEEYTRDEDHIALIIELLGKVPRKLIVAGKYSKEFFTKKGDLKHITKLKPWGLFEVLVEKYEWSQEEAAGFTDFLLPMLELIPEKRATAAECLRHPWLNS
UniProt Q96IX5: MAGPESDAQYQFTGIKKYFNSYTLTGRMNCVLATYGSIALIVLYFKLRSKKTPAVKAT
UniProt Q96KB5: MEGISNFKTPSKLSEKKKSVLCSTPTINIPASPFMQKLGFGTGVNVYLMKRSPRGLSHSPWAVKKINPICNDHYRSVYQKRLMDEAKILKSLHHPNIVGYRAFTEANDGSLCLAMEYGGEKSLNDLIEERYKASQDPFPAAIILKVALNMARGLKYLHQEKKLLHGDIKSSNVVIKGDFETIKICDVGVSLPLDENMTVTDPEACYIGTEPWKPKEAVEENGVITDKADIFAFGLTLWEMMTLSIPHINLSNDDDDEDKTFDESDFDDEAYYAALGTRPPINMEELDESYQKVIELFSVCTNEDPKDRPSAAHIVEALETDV
UniProt Q96HS1, whole entry: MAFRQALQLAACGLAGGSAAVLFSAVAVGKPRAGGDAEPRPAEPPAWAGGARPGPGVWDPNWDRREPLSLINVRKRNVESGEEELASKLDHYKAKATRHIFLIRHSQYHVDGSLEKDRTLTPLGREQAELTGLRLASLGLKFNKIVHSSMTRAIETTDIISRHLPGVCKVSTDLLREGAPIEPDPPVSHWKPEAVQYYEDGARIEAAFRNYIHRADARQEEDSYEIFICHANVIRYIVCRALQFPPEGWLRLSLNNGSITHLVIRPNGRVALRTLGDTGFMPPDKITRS
UniProt Q96JB5: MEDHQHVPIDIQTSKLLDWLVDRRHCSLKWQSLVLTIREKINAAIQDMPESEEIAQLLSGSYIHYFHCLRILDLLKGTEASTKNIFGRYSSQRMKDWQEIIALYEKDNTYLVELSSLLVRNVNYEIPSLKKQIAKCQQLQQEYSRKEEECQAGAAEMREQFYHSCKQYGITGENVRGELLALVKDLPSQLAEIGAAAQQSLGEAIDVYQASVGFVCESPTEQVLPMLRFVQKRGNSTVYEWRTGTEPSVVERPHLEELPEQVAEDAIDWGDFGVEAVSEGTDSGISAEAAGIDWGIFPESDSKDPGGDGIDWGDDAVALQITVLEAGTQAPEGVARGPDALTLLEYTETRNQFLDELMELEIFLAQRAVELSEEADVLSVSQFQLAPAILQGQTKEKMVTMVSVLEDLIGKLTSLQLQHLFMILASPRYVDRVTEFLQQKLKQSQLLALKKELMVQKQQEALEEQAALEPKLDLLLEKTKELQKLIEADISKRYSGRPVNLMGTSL
UniProt Q96KR1: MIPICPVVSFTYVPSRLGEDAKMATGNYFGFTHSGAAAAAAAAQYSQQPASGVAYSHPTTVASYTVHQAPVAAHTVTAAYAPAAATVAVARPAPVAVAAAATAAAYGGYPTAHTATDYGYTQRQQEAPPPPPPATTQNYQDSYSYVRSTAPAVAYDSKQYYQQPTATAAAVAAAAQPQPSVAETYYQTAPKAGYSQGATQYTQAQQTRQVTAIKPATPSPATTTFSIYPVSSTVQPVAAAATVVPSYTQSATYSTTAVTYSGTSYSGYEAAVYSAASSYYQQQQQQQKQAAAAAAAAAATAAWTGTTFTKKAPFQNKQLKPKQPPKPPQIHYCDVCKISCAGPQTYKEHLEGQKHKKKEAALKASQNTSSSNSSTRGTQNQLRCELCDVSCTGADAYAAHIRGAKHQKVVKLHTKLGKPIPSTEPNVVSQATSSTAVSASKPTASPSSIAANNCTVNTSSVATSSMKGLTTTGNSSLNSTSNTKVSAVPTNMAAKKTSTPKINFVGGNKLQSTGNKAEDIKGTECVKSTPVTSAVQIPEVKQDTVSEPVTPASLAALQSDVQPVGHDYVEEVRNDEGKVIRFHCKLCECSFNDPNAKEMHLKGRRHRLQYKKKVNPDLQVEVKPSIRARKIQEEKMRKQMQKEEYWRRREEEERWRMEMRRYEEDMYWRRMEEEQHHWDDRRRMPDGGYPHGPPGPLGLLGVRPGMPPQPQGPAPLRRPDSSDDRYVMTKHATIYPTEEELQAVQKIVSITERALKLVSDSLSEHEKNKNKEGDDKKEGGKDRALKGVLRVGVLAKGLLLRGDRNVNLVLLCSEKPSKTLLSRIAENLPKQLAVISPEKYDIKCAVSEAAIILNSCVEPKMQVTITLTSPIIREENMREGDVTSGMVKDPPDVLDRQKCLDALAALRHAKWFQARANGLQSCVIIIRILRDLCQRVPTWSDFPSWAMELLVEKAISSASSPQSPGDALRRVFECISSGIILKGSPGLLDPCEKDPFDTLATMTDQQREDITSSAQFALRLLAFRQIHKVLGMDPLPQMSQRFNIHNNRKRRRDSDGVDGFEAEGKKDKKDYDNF
UniProt Q96NT0: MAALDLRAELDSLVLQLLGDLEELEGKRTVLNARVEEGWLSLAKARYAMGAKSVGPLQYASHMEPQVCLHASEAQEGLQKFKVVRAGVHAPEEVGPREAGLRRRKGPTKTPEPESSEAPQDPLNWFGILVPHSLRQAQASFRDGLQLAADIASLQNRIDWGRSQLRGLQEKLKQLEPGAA

Compound: Nc1ncnc2c1ncn2[C@@H]1O[C@H](COP(=O)(O)OP(=O)(O)OP(=O)(O)O)[C@@H](O)[C@H]1O [adenosine triphosphate]
Test: NP40-soluble protein abundance relative to vehicle (solubility fold change) (ratio); higher = more soluble protein in presence of ATP
Summary of the method: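 Values are fold changes against the detergent-processed vehicle, based on vsn-normalised intensities. Jurkat crude lysate was treated at eight concentrations from 0.1 to 10 mM (10 min at room temperature, then 3 min at 37 °C), solubilised with 0.8% NP40 and benzonase, ultracentrifuged and analysed by TMT-labelled LC-MS/MS over three independent experiments.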

Target	NP40-soluble protein abundance (concentration: 0.1mM)	NP40-soluble protein abundance (concentration: 0.5mM)	NP40-soluble protein abundance (concentration: 1mM)	NP40-soluble protein abundance (concentration: 2mM)	NP40-soluble protein abundance (concentration: 4mM)	NP40-soluble protein abundance (concentration: 6mM)	NP40-soluble protein abundance (concentration: 8mM)	NP40-soluble protein abundance (concentration: 10mM)
SENP8 (UniProt Q96LD8)	1.01 ± 0.072	1.04 ± 0.085	0.97 ± 0.057	0.942 ± 0.032	0.943 ± 0.014	0.922 ± 0.035	0.911 ± 0.024	0.932 ± 0.023
UniProt Q96HN2-2|Q96HN2	0.937 ± 0.07	0.972 ± 0.072	0.919 ± 0.042	0.934 ± 0.051	0.898 ± 0.025	0.939 ± 0.052	0.911 ± 0.017	0.934 ± 0.01
UniProt Q96CN4 and related entries	1.03 ± 0.098	1.03 ± 0.077	0.985 ± 0.035	1.02 ± 0.061	1.13 ± 0.21	1.1 ± 0.084	1 ± 0.034	1.05 ± 0.059
CCDC124 (UniProt Q96CT7)	0.967 ± 0.14	0.944 ± 0.1	1.08 ± 0.15	1.14 ± 0.089	1.3 ± 0.2	1.56 ± 0.2	1.64 ± 0.1	1.96 ± 0.36
UniProt Q96G25 and related entries	0.939 ± 0.13	0.91 ± 0.095	1 ± 0.11	0.976 ± 0.074	1.06 ± 0.035	1.07 ± 0.11	0.993 ± 0.039	0.965 ± 0.1
UniProt Q96DB5	0.937 ± 0.058	0.957 ± 0.029	–	–	–	–	–	–
PUS7 (UniProt Q96PZ0)	1.02 ± 0.045	0.996 ± 0.013	0.969 ± 0.059	0.974 ± 0.057	0.967 ± 0.034	0.941 ± 0.076	0.963 ± 0.03	0.968 ± 0.036
UniProt Q96N46 and related entries	1.04 ± 0.024	1.03 ± 0.084	–	–	–	–	–	–
UniProt Q96GN5 and related entries	0.962 ± 0.071	1.06 ± 0.18	1.09 ± 0.19	1.16 ± 0.23	1.23 ± 0.36	1.29 ± 0.35	1.34 ± 0.41	1.42 ± 0.57
UniProt Q96EZ8 and related entries	0.975 ± 0.052	1.05 ± 0.1	1.08 ± 0.04	1.06 ± 0.053	1.08 ± 0.013	1.09 ± 0.093	1.14 ± 0.038	1.18 ± 0.044
UniProt Q96LT9 and related entries	1.1 ± 0.085	1.35 ± 0.19	1.31 ± 0.027	1.46 ± 0.034	1.75 ± 0.15	1.95 ± 0.12	1.78 ± 0.02	2.06 ± 0.096
UniProt Q96II8 and related entries	1.04 ± 0.071	1.1 ± 0.018	1.17 ± 0.11	1.21 ± 0.057	1.2 ± 0.035	1.22 ± 0.078	1.17 ± 0.068	1.21 ± 0.034
COG8 (UniProt Q96MW5)	0.959 ± 0.067	0.925 ± 0.097	0.938 ± 0.057	0.917 ± 0.029	0.937 ± 0.048	0.898 ± 0.068	0.902 ± 0.06	0.975 ± 0.054
SRPK1 (UniProt Q96SB4)	1.12 ± 0.054	1.25 ± 0.088	1.31 ± 0.091	1.39 ± 0.079	1.5 ± 0.099	1.63 ± 0.12	1.67 ± 0.083	1.74 ± 0.11
FAM122A (UniProt Q96E09)	1 ± 0.09	0.952 ± 0.092	–	–	–	–	–	–
UniProt Q96IX5	0.917 ± 0.17	0.998 ± 0.33	0.875 ± 0.049	0.935 ± 0.11	0.936 ± 0.16	0.976 ± 0.15	0.909 ± 0.16	0.99 ± 0.14
UniProt Q96N16 and related entries	0.962 ± 0.085	1.18 ± 0.08	1.17 ± 0.24	1.27 ± 0.16	1.28 ± 0.24	1.37 ± 0.19	1.27 ± 0.23	1.36 ± 0.17
GNPNAT1 (UniProt Q96EK6)	1.04 ± 0.076	1.06 ± 0.047	–	–	–	–	–	–
UniProt Q96KB5 and related entries	1.04 ± 0.07	1.02 ± 0.027	1 ± 0.038	0.98 ± 0.051	0.964 ± 0.031	0.949 ± 0.083	0.958 ± 0.042	0.965 ± 0.039
PGAM5 (UniProt Q96HS1)	0.958 ± 0.048	0.989 ± 0.046	1.1 ± 0.037	1.14 ± 0.083	1.3 ± 0.06	1.48 ± 0.16	1.64 ± 0.089	1.72 ± 0.11
CDK5RAP3 (UniProt Q96JB5)	0.963 ± 0.035	0.999 ± 0.056	0.997 ± 0.041	1.05 ± 0.066	1.08 ± 0.065	1.11 ± 0.068	1.12 ± 0.045	1.14 ± 0.099
ZFR (UniProt Q96KR1)	0.99 ± 0.053	1.01 ± 0.071	–	–	–	–	–	–
UniProt Q96NT0 and related entries	0.863 ± 0.098	0.817 ± 0.14	0.832 ± 0.11	0.87 ± 0.12	0.886 ± 0.061	0.84 ± 0.16	0.863 ± 0.11	0.849 ± 0.16

Record cards, from the list above.
UniProt Q96NT0 and related entries in the list: NP40-soluble protein abundance (concentration: 0.1mM): 0.863 ± 0.098; NP40-soluble protein abundance (concentration: 0.5mM): 0.817 ± 0.14; NP40-soluble protein abundance (concentration: 1mM): 0.832 ± 0.11; NP40-soluble protein abundance (concentration: 2mM): 0.87 ± 0.12; NP40-soluble protein abundance (concentration: 4mM): 0.886 ± 0.061; NP40-soluble protein abundance (concentration: 6mM): 0.84 ± 0.16; NP40-soluble protein abundance (concentration: 8mM): 0.863 ± 0.11; NP40-soluble protein abundance (concentration: 10mM): 0.849 ± 0.16
SRPK1 (UniProt Q96SB4) in the list: NP40-soluble protein abundance (concentration: 0.1mM): 1.12 ± 0.054; NP40-soluble protein abundance (concentration: 0.5mM): 1.25 ± 0.088; NP40-soluble protein abundance (concentration: 1mM): 1.31 ± 0.091; NP40-soluble protein abundance (concentration: 2mM): 1.39 ± 0.079; NP40-soluble protein abundance (concentration: 4mM): 1.5 ± 0.099; NP40-soluble protein abundance (concentration: 6mM): 1.63 ± 0.12; NP40-soluble protein abundance (concentration: 8mM): 1.67 ± 0.083; NP40-soluble protein abundance (concentration: 10mM): 1.74 ± 0.11
